Record: PubChem BioAssay AID1259314 (Drosophila RNAi Screening Center, 2017)

Purpose: 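Genes whose knock-down alters cell survival under toxic manganese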 (primary screen)
Cells: Drosophila S2R+ cells
Reagents: long dsRNA against Drosophila genes
Time to read-out: 5 days (4 days knock-down, then 1 day metal exposure)
Treatment: manganese chloride added to 15 mM for 24 hours
Measured: 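Cellular ATP measured by luciferase light, scaled to the plate mean, averaged across replicates and z-scored over plates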
Reading the numbers: mean ATP z-score: higher = more ATP than the plate average, more viable cells under manganese
Active means: 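Called active when the mean ATP z-score is above 1.5 or below -1.5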
Meaning of the calls: active = strong ATP change, up or down; inactive = no strong ATP change
Here is an unselected part of about 3,100 reagents. 289 of them (9.3%) were called active. 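Active includes both higher and lower ATP than plate average; check the z-score sign for direction.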 No sequences are given here. The record does not give: the amount of reagent.

no.	gene	dsRNA	mean ATP z-score	Outcome
1	Gr59c	DRSC04185	0.661	inactive
2	Eglp3	DRSC04293	0.126	inactive
3	Eglp3	DRSC25630	0.864	inactive
4	kek3	DRSC22830	-0.277	inactive
5	kek3	DRSC24250	0.127	inactive
6	CG32645	DRSC19683	0.705	inactive
7	CG32645	DRSC19889	-0.0376	inactive
8	Stim	DRSC20158	1.91	active
9	Stim	DRSC39682	0.592	inactive
10	Tmem63	DRSC06063	0.286	inactive
11	Tmem63	DRSC27402	-0.383	inactive
12	Task7	DRSC16477	-0.304	inactive
13	Task7	DRSC26662	-0.0138	inactive
14	Sln	DRSC07133	-0.765	inactive
15	Sln	DRSC24171	-0.187	inactive
16	Or2a	DRSC18690	-0.359	inactive
17	Or2a	DRSC39832	-0.608	inactive
18	CG1317	DRSC08305	-0.717	inactive
19	CG1317	DRSC39565	-0.506	inactive
20	CG3803	DRSC04420	0.535	inactive
21	Ir93a	DRSC15212	0.395	inactive
22	Ir93a	DRSC28149	0.201	inactive
23	CapaR	DRSC23640	0.0493	inactive
24	CapaR	DRSC39684	-0.0719	inactive
25	CG11110	DRSC06037	-0.668	inactive
26	CG11110	DRSC27355	-1.45	inactive
27	Ykt6	DRSC26017	-1.95	active
28	CG14855	DRSC14979	0.366	inactive
29	CG14855	DRSC39527	2.03	active
30	ninaA	DRSC00830	-0.0304	inactive
31	CG14767	DRSC06500	2.11	active
32	CG14767	DRSC28418	0.117	inactive
33	side-VIII	DRSC23187	-1.17	inactive
34	side-VIII	DRSC28353	0.0267	inactive
35	CG4942	DRSC10462	-0.0834	inactive
36	CG4942	DRSC39879	-0.797	inactive
37	CG12290	DRSC14497	0.00621	inactive
38	CG12290	DRSC28328	0.273	inactive
39	Vha100-3	DRSC05760	-0.0856	inactive
40	Vha100-3	DRSC39558	1.31	inactive
41	VhaAC45	DRSC07058	0.418	inactive
42	VhaAC45	DRSC39906	-0.289	inactive
43	Alk	DRSC23342	-0.418	inactive
44	Alk	DRSC36972	-0.519	inactive
45	Alk	DRSC36973	0.637	inactive
46	CG6125	DRSC15970	-0.269	inactive
47	CG32432	DRSC11744	-0.814	inactive
48	CG11437	DRSC11659	-0.174	inactive
49	CG5348	DRSC06933	-0.599	inactive
50	CG5348	DRSC39672	1.06	inactive
51	nrv2	DRSC00948	-0.0399	inactive
52	nrv2	DRSC03383	-0.406	inactive
53	CG15890	DRSC19737	-0.105	inactive
54	botv	DRSC05949	-1.54	active
55	botv	DRSC28034	3.42	active
56	Or43b	DRSC07486	-0.734	inactive
57	Or43b	DRSC29565	0.589	inactive
58	CG12990	DRSC19510	-0.218	inactive
59	CG18281	DRSC11742	0.979	inactive
60	CG18281	DRSC39875	-0.418	inactive
61	Loxl1	DRSC14303	0.21	inactive
62	wtrw	DRSC14241	0.249	inactive
63	wtrw	DRSC29977	0.0986	inactive
64	CG7573	DRSC10884	0.349	inactive
65	ATP8B	DRSC14961	-0.179	inactive
66	CG13743	DRSC22775	-0.712	inactive
67	Shab	DRSC08013	0.139	inactive
68	Shab	DRSC08699	-0.891	inactive
69	CG11099	DRSC06034	-0.474	inactive
70	CG1698	DRSC06640	-0.22	inactive
71	CG1698	DRSC24314	-0.557	inactive
72	CG7514	DRSC08597	-1.44	inactive
73	CG7514	DRSC25670	1.86	active
74	syd	DRSC10963	0.621	inactive
75	syd	DRSC24418	-0.926	inactive

Entries listed so far marked active (7):
gene	dsRNA	mean ATP z-score	Outcome
Stim	DRSC20158	1.91	active
Ykt6	DRSC26017	-1.95	active
CG14855	DRSC39527	2.03	active
CG14767	DRSC06500	2.11	active
botv	DRSC05949	-1.54	active
botv	DRSC28034	3.42	active
CG7514	DRSC25670	1.86	active
